Source: patent US8629101B2, “Cholesterol derivatives of inhibitors of viral fusion” (priority 2007, dated 2014)
Some results were stated once for a whole list of compounds, not compound by compound.

Test system: HIV-1 (HXB2)
Format: cell-based
Conditions: read-out: IC50 antiviral activity
Source text: The antiviral activity of a peptide from the membrane-proximal external region (MPER) of gp41, which also includes the epitope of monoclonal antibody (MAb) 2F5, […] […] Accordingly, when peptide […] […] Moreover, the nature of the lipid was important, since a bis-Lys(N^ε-Palmitoyl) group was ineffective. Details of the assay used can be found in Joyce et al, J. Biol Chem., 2002, 277, 45811-45820.

Ac-ELLELDKWASLW-NH2 (N-terminus and C-terminus assumed)
IC50: > 100 µM

Ac-ELLELDKWASLWN-NH2 (N-terminus and C-terminus assumed)
IC50: > 100 µM
